Measurements: PubChem BioAssay AID256 (DTP/NCI, 2004)
The list is a part of this screen's results and no random one: it is rich in T/C values a quarter to a half above the control, in often repeated tests (any T/C) and in doses without a T/C. Other doses and runs of a compound stand elsewhere. T/C: endpoint of the treated group in % of that of the vehicle group. Some doses have a count of surviving animals in place of a T/C: the source holds a T/C of zero for them, seemingly a mark for toxic or unscored doses. Some doses without a T/C left all or most animals alive at the check, yet need not have been tolerated: the source hardly ever lists a survival T/C far under the control, and the zero likely stands for such cases as well. Survivors were counted at the toxicity check, usually on the fifth day, unless a day is given; later deaths do not show. Schedule codes are those of the source, read here as Q, the interval in days (D) or hours (H), X, the number of doses. Marks such as (2×) stand for listed records that agree. Some schedule codes hold Z or #, which are not explained here. For survival time, this PubChem deposit counts one and a half times the control or more as active, and values a quarter to a half above the control carry no call in these data; other NCI protocols may use other cut-offs. Some T/C values are followed by the survivors on the day toxicity was checked, most often the fifth; where none is given, no animal had died by that day.

Tested on: CD2F1 mice, L1210 leukemia ip, survival T/C
Test: NCI In Vivo Anticancer Drug Screen. Data for tumor model L1210 Leukemia (intraperitoneal) in CD2F1 (CDF1) mice
Conditions: higher T/C = longer survival
In short: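 Read-out first: treated-group measurement over vehicle-control measurement, expressed as a ratio. Animals bore a transplanted tumor line and were dosed with compound or vehicle.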

[1] = T/C endpoint: mean survival time, dose: 100.0 mg/kg/injection, schedule: Q01DX001 (ip), vehicle: saline
[2] = T/C endpoint: mean survival time, dose: 200.0 mg/kg/injection, schedule: Q01DX009 (ip), vehicle: saline
[3] = T/C endpoint: mean survival time, dose: 400.0 mg/kg/injection, schedule: Q04DX003 (ip), vehicle: saline with Tween-80
[4] = T/C endpoint: mean survival time, dose: 200.0 mg/kg/injection, schedule: Q04DX002 (ip), vehicle: saline with Tween-80
[5] = T/C endpoint: mean survival time, dose: 400.0 mg/kg/injection, schedule: Q04DX002 (ip), vehicle: saline with Tween-80
[6] = T/C endpoint: mean survival time, dose: 100.0 mg/kg/injection, schedule: Q04DX003 (ip), vehicle: saline with Tween-80
[7] = T/C endpoint: mean survival time, dose: 200.0 mg/kg/injection, schedule: Q04DX003 (ip), vehicle: saline with Tween-80
[8] = T/C endpoint: mean survival time, dose: 200.0 mg/kg/injection, schedule: Q01DX009 (ip), vehicle: saline with Tween-80
[9] = T/C endpoint: mean survival time, dose: 100.0 mg/kg/injection, schedule: Q01DX009 (ip), vehicle: saline with Tween-80
[10] = T/C endpoint: mean survival time, dose: 400.0 mg/kg/injection, schedule: Q01DX009 (ip), vehicle: saline with Tween-80
[11] = T/C endpoint: mean survival time, dose: 200.0 mg/kg/injection, schedule: Q01DX001 (ip), vehicle: saline
[12] = T/C endpoint: mean survival time, dose: 400.0 mg/kg/injection, schedule: Q01DX001 (ip), vehicle: saline

C/C(=N\N=C(N)N)c1ccc(NC(=O)Nc2ccc(/C(C)=N/N=C(N)N)cc2)cc1
T/C (T/C endpoint: mean survival time, dose: 50.0 mg/kg/injection, schedule: Q03DX003 (ip), vehicle: saline): 144 % of control | T/C (T/C endpoint: mean survival time, dose: 50.0 mg/kg/injection, schedule: Q04DX003 (ip), vehicle: saline): 137 % of control | T/C [1]: 143 % of control | T/C (T/C endpoint: mean survival time, dose: 100.0 mg/kg/injection, schedule: Q03HX008 (ip), vehicle: saline): 143 % of control | T/C (T/C endpoint: mean survival time, dose: 100.0 mg/kg/injection, schedule: Q04DX003 (ip), vehicle: saline): 143 % of control | T/C (T/C endpoint: mean survival time, dose: 100.0 mg/kg/injection, schedule: Q08DX002 (ip), vehicle: saline): 136 % of control | T/C (T/C endpoint: mean survival time, dose: 100.0 mg/kg/injection, schedule: Q## X016 (ip), vehicle: saline): 144 % of control | T/C (T/C endpoint: mean survival time, dose: 200.0 mg/kg/injection, schedule: Q01DX005 (ip), vehicle: saline): 135 % of control [7 of 10 alive] | T/C [2]: 135 % of control [8 of 10 alive] | survivor count (T/C endpoint: mean survival time, dose: 400.0 mg/kg/injection, schedule: Q01DX005 (ip), vehicle: saline): 1 of 10 | survivor count (T/C endpoint: mean survival time, dose: 800.0 mg/kg/injection, schedule: Q03HX008 (ip), vehicle: saline): 3 of 10 | survivor count (T/C endpoint: mean survival time, dose: 800.0 mg/kg/injection, schedule: Q## X024 (ip), vehicle: saline): 4 of 10

O=[N+]([O-])c1cccc(C=Nc2ccc3c(c2)C(Br)c2ccccc2-3)c1 (stereo unspecified)
survivor count [3]: 5 of 6

CC1C(=O)OC2C1CCC1(C)C=CC(=O)C(C)C21 (stereo unspecified)
survivor count (T/C endpoint: mean survival time, dose: 100.0 mg/kg/injection, schedule: Q04DX002 (ip), vehicle: saline with Tween-80): 0 of 3 | survivor count [4]: 0 of 3 | survivor count [5]: 0 of 3 (2×)

O=C(O)CC(=O)O.[NH-]C1CCCCC1C1CCCCC1[NH-].[Pt+2] (stereo unspecified)
T/C (T/C endpoint: mean survival time, dose: 25.0 mg/kg/injection, schedule: Q04DX003 (ip), vehicle: distilled water + Tween-80): 133 % of control

CSC(=NC#N)SC
survivor count (T/C endpoint: mean survival time, dose: 12.5 mg/kg/injection, schedule: Q01DX001 (ip), vehicle: Klucel (hydroxypropylcellulose) (HPC)): 0 of 3 | survivor count (T/C endpoint: mean survival time, dose: 50.0 mg/kg/injection, schedule: Q01DX001 (ip), vehicle: Klucel (hydroxypropylcellulose) (HPC)): 0 of 3 | survivor count (T/C endpoint: mean survival time, dose: 100.0 mg/kg/injection, schedule: Q01DX001 (ip), vehicle: Klucel (hydroxypropylcellulose) (HPC)): 0 of 3 | survivor count (T/C endpoint: mean survival time, dose: 200.0 mg/kg/injection, schedule: Q01DX001 (ip), vehicle: Klucel (hydroxypropylcellulose) (HPC)): 0 of 3

Cc1cn(C2CC(O)C(CO)O2)c(=O)nc1NCC12CC3CC(CC(C3)C1)C2 (stereo unspecified)
survivor count (T/C endpoint: median survival time, dose: 200.0 mg/kg/injection, schedule: Q01DX005 (ip), vehicle: distilled water + Tween-80): 6 of 6

[Cl][Pt+2][Cl].[NH-]CC1(C[NH-])CCCC1
survivor count (T/C endpoint: mean survival time, dose: 50.0 mg/kg/injection, schedule: Q04DX003 (ip), vehicle: saline with Tween-80): 4 of 6 | survivor count [6]: 3 of 6 | survivor count [7]: 0 of 6

CCCCCCCCCCCCCCCCCC[n+]1ccccc1
survivor count (T/C endpoint: mean survival time, dose: 3.12 mg/kg/injection, schedule: Q01DX001 (ip), vehicle: saline with Tween-80): 0 of 3 | survivor count (T/C endpoint: mean survival time, dose: 6.25 mg/kg/injection, schedule: Q01DX001 (ip), vehicle: saline with Tween-80): 0 of 3 | survivor count (T/C endpoint: mean survival time, dose: 12.5 mg/kg/injection, schedule: Q01DX001 (ip), vehicle: saline with Tween-80): 0 of 3

Cc1cc(O)c(N=Nc2ccc(C(=O)O)cc2)cc1C
survivor count [2]: 6 of 6

O=S(=O)(F)c1cc(C[P+](c2ccccc2)(c2ccccc2)c2ccccc2)ccc1Cl
survivor count [6]: 2 of 6 | survivor count [7]: 0 of 6 | survivor count [3]: 0 of 6

CC1NC(=O)C(NC(=O)c2cnc3ccccc3n2)COC(=O)C(C(C)C)N(C)C(=O)C2CSSCC(C(=O)N(C)C(C(C)C)C(=O)OCC(NC(=O)c3cnc4ccccc4n3)C(=O)NC(C)C(=O)N2C)N(C)C1=O (stereo unspecified)
survivor count (T/C endpoint: mean survival time, dose: 300.0 micrograms/kg/injection, schedule: Q01DX009 (ip), vehicle: other): 5 of 6

O=S(=O)(O)C1CCC(O)C2[N-]CCCC21.O=S(=O)(O)C1CCC(O)C2[N-]CCCC21.[Zn+2] (stereo unspecified)
survivor count [8]: 6 of 6

Cc1oc2c(C)c3oc(=O)cc(C)c3cc2c1CCl
survivor count [9]: 4 of 6 | survivor count [8]: 0 of 6 | survivor count [10]: 0 of 6

O=C(Nc1ccc(C2=NCCCN2)cc1)c1ccc(C(=O)Nc2ccc(C3=NCCCN3)cc2)cc1
T/C (T/C endpoint: mean survival time, dose: 2.0 mg/kg/injection, schedule: Q01DX008 (iv), vehicle: water): 135 % of control | survivor count (T/C endpoint: mean survival time, dose: 4.0 mg/kg/injection, schedule: Q01DX008 (iv), vehicle: water): 2 of 7 | survivor count (T/C endpoint: mean survival time, dose: 8.0 mg/kg/injection, schedule: Q01DX008 (iv), vehicle: water): 0 of 7

ClCC(CCl)N1CCCCC1
T/C (T/C endpoint: mean survival time, dose: 25.0 mg/kg/injection, schedule: Q01DX009 (ip), vehicle: saline sonified): 128 % of control | survivor count [1]: 0 of 6 | survivor count [11]: 0 of 6 | survivor count [12]: 0 of 6

CCCCCCCCCCCCNC(=O)c1ccc[n+](Cc2ccccc2)c1
survivor count [6]: 0 of 6 | survivor count [7]: 0 of 6 | survivor count [3]: 0 of 6

CN(C)/N=C(\CBr)c1ccccc1
survivor count (T/C endpoint: mean survival time, dose: 200.0 mg/kg/injection, schedule: Q01DX009 (ip), vehicle: saline sonified): 0 of 6 | survivor count [12]: 1 of 6

c1ccc(CSc2ncnc3nc[nH]c23)nc1
T/C [7]: 136 % of control

CCOC(=O)C(=O)Nc1cc(C)ccc1C
survivor count (T/C endpoint: mean survival time, dose: 50.0 mg/kg/injection, schedule: Q01DX009 (ip), vehicle: saline with Tween-80): 6 of 6 | survivor count [9]: 6 of 6 | survivor count [8]: 6 of 6

Nc1nc2c(ncn2-c2ccc(OCCNC(=O)Nc3cc(S(=O)(=O)F)ccc3Cl)cc2)c(=O)[nH]1 (tested in a mixture with another compound)
survivor count (T/C endpoint: mean survival time, dose: 300.0 mg/kg/injection, schedule: Q01DX001 (ip), vehicle: saline with Tween-80): 6 of 6

CC1(C)N=C(N)N=C(N)N1c1cccc([N+](=O)[O-])c1
survivor count [4]: 0 of 3 | survivor count [5]: 0 of 3

O=C(O)CCc1ccccc1-c1ccccc1
T/C [5]: 125 % of control

CCCC(=O)OCc1ccc(Cl)c(Cl)c1
survivor count [8]: 3 of 6 | survivor count [3]: 2 of 6

C=CCN1C(=O)C=CC1=O
survivor count [4]: 3 of 3

CNNCc1ccc(/C=N/NC(N)=S)cc1
survivor count (T/C endpoint: mean survival time, dose: 25.0 mg/kg/injection, schedule: Q01DX009 (ip), vehicle: water): 6 of 6 | survivor count (T/C endpoint: mean survival time, dose: 200.0 mg/kg/injection, schedule: Q01DX009 (ip), vehicle: water): 6 of 6 | survivor count (T/C endpoint: mean survival time, dose: 400.0 mg/kg/injection, schedule: Q01DX009 (ip), vehicle: water): 3 of 6

CC1(C)C2CC=C(C[P+](c3ccccc3)(c3ccccc3)c3ccccc3)C1C2 (stereo unspecified)
survivor count (T/C endpoint: mean survival time, dose: 10.0 mg/kg/injection, schedule: Q01DX009 (ip), vehicle: saline sonified): 3 of 6 | survivor count (T/C endpoint: mean survival time, dose: 20.0 mg/kg/injection, schedule: Q01DX009 (ip), vehicle: saline sonified): 2 of 6

C[CH2][Sn]1([CH2]C)[O]C2C(CO)OC(n3ccc(=O)[nH]c3=O)C2[O]1 (stereo unspecified)
survivor count (T/C endpoint: mean survival time, dose: 12.5 mg/kg/injection, schedule: Q01DX005 (ip), vehicle: water): 3 of 6 | survivor count (T/C endpoint: mean survival time, dose: 25.0 mg/kg/injection, schedule: Q01DX005 (ip), vehicle: other): 0 of 6 | survivor count (T/C endpoint: mean survival time, dose: 25.0 mg/kg/injection, schedule: Q01DX005 (ip), vehicle: water): 0 of 6 | survivor count (T/C endpoint: mean survival time, dose: 50.0 mg/kg/injection, schedule: Q01DX005 (ip), vehicle: other): 0 of 6 | survivor count (T/C endpoint: mean survival time, dose: 100.0 mg/kg/injection, schedule: Q01DX005 (ip), vehicle: other): 0 of 6 | survivor count (T/C endpoint: mean survival time, dose: 200.0 mg/kg/injection, schedule: Q01DX005 (ip), vehicle: other): 0 of 6

O=C(O)C(=O)C(Cl)Br (stereo unspecified)
survivor count [1]: 1 of 3 | survivor count [11]: 0 of 3 | survivor count [12]: 0 of 3

O=C(CCCl)Oc1c(Cl)c(Cl)c(Cl)c(Cl)c1Cl
survivor count [8]: 5 of 6 | survivor count [10]: 3 of 6
